The target of assay [1] is T1, GST-CT^C1 (UniProt P21802).
T1 sequence: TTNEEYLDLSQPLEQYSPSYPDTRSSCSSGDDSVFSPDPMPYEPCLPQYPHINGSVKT
In words: pull-down.

For assay [2], the target named is T1, GST-CT^C1. In words: BLI. For orientation: Biolayer interferometry detects binding as a change in optical thickness at a sensor tip.
The target in the next assay is JM-KD^K518I (UniProt P21802). In words: SEC. A general note: In gel filtration, larger molecules generally elute earlier.
Assay [3] concerns the target CFP- and RFP-tagged FGFR2^C1 (UniProt P21802). In words: FRET or BRET. In general terms: BRET reads energy transfer from a luciferase to a nearby fluorophore.
Another assay addresses JM-KD^Y657/658F (UniProt P21802). In words: SEC.

These are yes or no findings as the source states them, for the method shown. For some assays here: In cells and extracts the contact can be indirect. Some results given as binding are weak or reduced against the parent protein; the word gives no strength. For some assays here: Where a sequence is shown, tags or fusion partners need not be part of it.

For the substance GRB2 (from UniProt P62993 1-217), the binding result with GST-CT^C1 [1] and in the assay with GST-CT^C1 [2] was “binds” throughout.
Consider “JM-KD^K518I (from UniProt P21802-3 414-764) (domain or fragment)”, for which, in the assay with JM-KD^K518I, the binding result is given as “no binding (tested: 60 - 80 µM)”.
For “CFP- and RFP-tagged FGFR2^C1 (from UniProt P21802-3 22-822) (receptor)”, the binding result in assay [3] is given as “binds”.
Consider “JM-KD^Y657/658F (from UniProt P21802-3 414-764) (domain or fragment)”, for which the binding entry with JM-KD^Y657/658F is recorded as “no binding (tested: 60 - 80 µM)”.

Values taken from publication doi:10.1101/2020.10.01.322123 (bioRxiv, 2020).
